For assay [1], the target named is T1, EpCAM (epithelial cell adhesion molecule), full-length (UniProt P16422).
T1 sequence (looked up): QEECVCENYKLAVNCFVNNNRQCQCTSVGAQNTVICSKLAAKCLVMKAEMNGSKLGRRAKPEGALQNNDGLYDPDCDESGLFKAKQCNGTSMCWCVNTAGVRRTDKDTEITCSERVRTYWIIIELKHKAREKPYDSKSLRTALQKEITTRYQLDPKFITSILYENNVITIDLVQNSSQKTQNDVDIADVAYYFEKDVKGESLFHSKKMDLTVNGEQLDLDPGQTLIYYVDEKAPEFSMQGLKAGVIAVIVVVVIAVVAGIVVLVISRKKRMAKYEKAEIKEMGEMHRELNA
Put plainly: co-immunoprecipitation with EpCAM from HEK293 stable transfectants, immunoblot.

Amino acid sequences for entries named in this document (tags omitted). Residues count along the entry.
UniProt P35222, residues 2-781: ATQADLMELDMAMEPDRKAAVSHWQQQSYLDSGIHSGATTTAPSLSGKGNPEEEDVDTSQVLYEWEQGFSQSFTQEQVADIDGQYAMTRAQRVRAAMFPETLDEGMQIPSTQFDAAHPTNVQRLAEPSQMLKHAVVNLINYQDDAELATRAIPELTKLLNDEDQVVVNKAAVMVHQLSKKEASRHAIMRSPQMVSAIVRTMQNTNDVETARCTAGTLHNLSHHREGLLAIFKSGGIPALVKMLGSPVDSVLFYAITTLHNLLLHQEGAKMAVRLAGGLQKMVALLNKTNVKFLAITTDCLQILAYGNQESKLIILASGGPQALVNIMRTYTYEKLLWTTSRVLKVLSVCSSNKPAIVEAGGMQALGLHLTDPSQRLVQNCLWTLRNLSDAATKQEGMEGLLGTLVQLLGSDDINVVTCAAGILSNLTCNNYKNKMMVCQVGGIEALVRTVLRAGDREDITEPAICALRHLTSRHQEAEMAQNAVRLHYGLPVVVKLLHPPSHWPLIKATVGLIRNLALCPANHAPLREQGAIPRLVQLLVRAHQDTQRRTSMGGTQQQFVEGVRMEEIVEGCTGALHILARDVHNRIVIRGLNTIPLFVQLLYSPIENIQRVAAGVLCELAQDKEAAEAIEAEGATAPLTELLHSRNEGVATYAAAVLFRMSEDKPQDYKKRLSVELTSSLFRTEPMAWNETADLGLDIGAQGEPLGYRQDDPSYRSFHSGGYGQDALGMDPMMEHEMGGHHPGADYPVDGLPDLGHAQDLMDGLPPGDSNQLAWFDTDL

The target of assay [2] is T1, EpCAM (epithelial cell adhesion molecule), full-length. Put plainly: co-immunoprecipitation, PS-2 N-terminal fragment detected (Figure 2A).
The target is the same in assay [3]. Put plainly: co-immunoprecipitation from HEK293-EpCAM-HA-FHL2 cells; the filing calls this interaction supposedly indirect via FHL2.
Assay [4] shares this target. Put plainly: reciprocal co-immunoprecipitation from HEK293 transfectants.
Assay [5] has as its target β-catenin (endogenous) (human (HEK293 human embryonic kidney cells)) (UniProt P35222). Nature of the assay: co-immunoprecipitation from HEK293-EpCAM-HA-FHL2 cells.
The target of assay [6] is T1, EpCAM (epithelial cell adhesion molecule), full-length. Described as above.
For assay [7] the target is unchanged. Put plainly: GST pull-down of EpCAM from HeLa cell extracts.
For assay [8], the target named is T2, EpIC (intracellular domain of EpCAM) as yeast two-hybrid bait in pGBKT7 (UniProt P16422).
T2 sequence (looked up): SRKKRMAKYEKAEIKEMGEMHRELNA
Nature of the assay: yeast two-hybrid.

The target in assay [9] is T1, EpCAM (epithelial cell adhesion molecule), full-length. Nature of the assay: reciprocal co-immunoprecipitation from whole cell lysates of HEK293-EpCAM cells.
Assay [10] has the same target. Nature of the assay: co-immunoprecipitation of cell-free translated proteins (TNT) with EpEX-specific antibodies.

No constants are given. Whether binding was seen depends on the method and setting. For some of these results: In cells and extracts the contact can be indirect. Some entries that bind do so weakly or less than the wild type. For some of these results: Sequences can lack the tags named with a protein.

For six molecules, binding results are on record in EP1865001A1.

For “presenilin-2 (PS-2) (from UniProt P49810 1-297) (enzyme)”, the binding result in [1] and in assay [2] was “binds” in each case. Regarding “β-catenin (endogenous) (from UniProt P35222 2-781)”, the binding entry in [3] is “binds”.

B1: endogenous FHL2 (protein, UniProt Q14192 1-279, looked up)
chain: MTERFDCHHCNESLFGKKYILREESPYCVVCFETLFANTCEECGKPIGCDCKDLSYKDRHWHEACFHCSQCRNSLVDKPFAAKEDQLLCTDCYSNEYSSKCQECKKTIMPGTRKMEYKGSSWHETCFICHRCQQPIGTKSFIPKDNQNFCVPCYEKQHAMQCVQCKKPITTGGVTYREQPWHKECFVCTACRKQLSGQRFTARDDFAYCLNCFCDLYAKKCAGCTNPISGLGGTKYISFEERQWHNDCFNCKKCSLSLVGRGFLTERDDILCPDCGKDI
As for B1, the binding entry in assay [4], in assay [5] and in assay [6] was “binds” each time.

B2: wild-type FHL2 as recombinant GST-fusion (protein, UniProt Q14192 1-279, looked up, not shown: a dimerising Fc or GST)
chain: MTERFDCHHCNESLFGKKYILREESPYCVVCFETLFANTCEECGKPIGCDCKDLSYKDRHWHEACFHCSQCRNSLVDKPFAAKEDQLLCTDCYSNEYSSKCQECKKTIMPGTRKMEYKGSSWHETCFICHRCQQPIGTKSFIPKDNQNFCVPCYEKQHAMQCVQCKKPITTGGVTYREQPWHKECFVCTACRKQLSGQRFTARDDFAYCLNCFCDLYAKKCAGCTNPISGLGGTKYISFEERQWHNDCFNCKKCSLSLVGRGFLTERDDILCPDCGKDI
Take B2: the binding result in assay [7] was “binds”.

B3: FHL2 cDNA clone from the HEK293 cDNA bank in pACT2 (yeast two-hybrid prey) (protein, UniProt Q14192 1-279, looked up, not shown: large carriers)
chain: MTERFDCHHCNESLFGKKYILREESPYCVVCFETLFANTCEECGKPIGCDCKDLSYKDRHWHEACFHCSQCRNSLVDKPFAAKEDQLLCTDCYSNEYSSKCQECKKTIMPGTRKMEYKGSSWHETCFICHRCQQPIGTKSFIPKDNQNFCVPCYEKQHAMQCVQCKKPITTGGVTYREQPWHKECFVCTACRKQLSGQRFTARDDFAYCLNCFCDLYAKKCAGCTNPISGLGGTKYISFEERQWHNDCFNCKKCSLSLVGRGFLTERDDILCPDCGKDI
On to B3, for which the binding entry in assay [8] was “binds”.

B4: HA-tagged FHL2 (protein, UniProt Q14192 1-279, looked up, not shown: small tags and cut ends)
chain: MTERFDCHHCNESLFGKKYILREESPYCVVCFETLFANTCEECGKPIGCDCKDLSYKDRHWHEACFHCSQCRNSLVDKPFAAKEDQLLCTDCYSNEYSSKCQECKKTIMPGTRKMEYKGSSWHETCFICHRCQQPIGTKSFIPKDNQNFCVPCYEKQHAMQCVQCKKPITTGGVTYREQPWHKECFVCTACRKQLSGQRFTARDDFAYCLNCFCDLYAKKCAGCTNPISGLGGTKYISFEERQWHNDCFNCKKCSLSLVGRGFLTERDDILCPDCGKDI
On to B4, for which the binding entry in assay [9] and in assay [10] was “binds” throughout.
